Assay [1] addresses T1, Smc6-3C-Twin-Strep (S. cerevisiae) (UniProt Q12749).
T1 sequence: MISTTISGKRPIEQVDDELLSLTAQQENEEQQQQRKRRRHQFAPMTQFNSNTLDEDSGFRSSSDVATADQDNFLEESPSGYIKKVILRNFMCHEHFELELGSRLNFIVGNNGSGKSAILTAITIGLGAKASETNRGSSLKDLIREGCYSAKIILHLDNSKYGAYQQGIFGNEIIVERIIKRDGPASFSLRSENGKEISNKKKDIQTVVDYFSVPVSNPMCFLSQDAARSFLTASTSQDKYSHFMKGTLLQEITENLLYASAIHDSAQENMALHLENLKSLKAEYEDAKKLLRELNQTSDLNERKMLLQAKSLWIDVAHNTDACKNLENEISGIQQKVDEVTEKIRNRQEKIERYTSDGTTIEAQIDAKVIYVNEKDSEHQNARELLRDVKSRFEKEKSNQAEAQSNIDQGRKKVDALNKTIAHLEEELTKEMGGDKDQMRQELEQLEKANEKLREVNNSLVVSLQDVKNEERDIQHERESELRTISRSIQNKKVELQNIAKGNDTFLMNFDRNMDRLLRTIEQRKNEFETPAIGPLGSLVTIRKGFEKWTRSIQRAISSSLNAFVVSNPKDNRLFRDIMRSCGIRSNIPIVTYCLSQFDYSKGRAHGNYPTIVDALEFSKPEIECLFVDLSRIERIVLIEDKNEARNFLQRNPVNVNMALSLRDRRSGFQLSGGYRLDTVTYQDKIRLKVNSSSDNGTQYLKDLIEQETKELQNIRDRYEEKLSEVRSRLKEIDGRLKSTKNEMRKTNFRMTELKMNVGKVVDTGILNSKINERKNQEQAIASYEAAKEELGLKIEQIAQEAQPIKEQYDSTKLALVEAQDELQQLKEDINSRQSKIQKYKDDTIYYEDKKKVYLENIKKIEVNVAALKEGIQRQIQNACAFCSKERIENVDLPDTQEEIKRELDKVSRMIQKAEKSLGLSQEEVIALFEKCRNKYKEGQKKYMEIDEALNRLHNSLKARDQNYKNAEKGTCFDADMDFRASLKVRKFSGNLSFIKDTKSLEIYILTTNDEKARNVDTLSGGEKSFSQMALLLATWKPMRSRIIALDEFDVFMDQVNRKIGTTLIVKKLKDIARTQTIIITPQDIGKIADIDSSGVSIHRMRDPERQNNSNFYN
The experiment in a line: co-purification after co-expression.

In assay [2] the target is T2, Smc5 (S. cerevisiae) (UniProt Q08204).
T2 sequence: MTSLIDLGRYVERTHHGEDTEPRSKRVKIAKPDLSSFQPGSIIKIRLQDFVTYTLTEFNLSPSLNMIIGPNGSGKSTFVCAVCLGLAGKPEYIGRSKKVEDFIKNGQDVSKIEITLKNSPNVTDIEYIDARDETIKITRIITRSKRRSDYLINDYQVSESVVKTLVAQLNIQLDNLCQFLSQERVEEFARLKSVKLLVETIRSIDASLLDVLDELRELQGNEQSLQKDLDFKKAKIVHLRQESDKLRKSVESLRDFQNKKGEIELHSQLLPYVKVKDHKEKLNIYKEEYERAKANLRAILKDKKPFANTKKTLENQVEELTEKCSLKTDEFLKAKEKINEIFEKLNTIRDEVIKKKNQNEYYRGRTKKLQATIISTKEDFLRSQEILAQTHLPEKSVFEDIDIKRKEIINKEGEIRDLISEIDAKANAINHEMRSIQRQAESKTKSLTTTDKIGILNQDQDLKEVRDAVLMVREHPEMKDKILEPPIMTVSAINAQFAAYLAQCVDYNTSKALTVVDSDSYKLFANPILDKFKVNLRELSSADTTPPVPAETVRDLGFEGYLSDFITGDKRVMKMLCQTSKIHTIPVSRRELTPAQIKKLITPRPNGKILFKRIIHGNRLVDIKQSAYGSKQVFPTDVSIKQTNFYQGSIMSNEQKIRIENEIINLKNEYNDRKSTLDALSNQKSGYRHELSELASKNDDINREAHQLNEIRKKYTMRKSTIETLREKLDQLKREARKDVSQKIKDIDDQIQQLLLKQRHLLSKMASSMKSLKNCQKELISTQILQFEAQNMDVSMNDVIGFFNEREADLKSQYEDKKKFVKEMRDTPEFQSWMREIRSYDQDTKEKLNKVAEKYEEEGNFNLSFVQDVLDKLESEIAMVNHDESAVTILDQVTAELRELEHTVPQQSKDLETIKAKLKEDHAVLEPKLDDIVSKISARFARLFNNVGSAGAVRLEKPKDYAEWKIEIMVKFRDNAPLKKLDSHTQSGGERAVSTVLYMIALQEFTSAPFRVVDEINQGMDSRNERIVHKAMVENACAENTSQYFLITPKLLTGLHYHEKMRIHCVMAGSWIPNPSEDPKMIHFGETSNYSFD
The experiment in a line: cross-linking.

Assay [3] deals with T3, Smc6 (Twin-Strep tag removed, as in the octamer for XL-MS) (S. cerevisiae) (UniProt Q12749).
T3 sequence: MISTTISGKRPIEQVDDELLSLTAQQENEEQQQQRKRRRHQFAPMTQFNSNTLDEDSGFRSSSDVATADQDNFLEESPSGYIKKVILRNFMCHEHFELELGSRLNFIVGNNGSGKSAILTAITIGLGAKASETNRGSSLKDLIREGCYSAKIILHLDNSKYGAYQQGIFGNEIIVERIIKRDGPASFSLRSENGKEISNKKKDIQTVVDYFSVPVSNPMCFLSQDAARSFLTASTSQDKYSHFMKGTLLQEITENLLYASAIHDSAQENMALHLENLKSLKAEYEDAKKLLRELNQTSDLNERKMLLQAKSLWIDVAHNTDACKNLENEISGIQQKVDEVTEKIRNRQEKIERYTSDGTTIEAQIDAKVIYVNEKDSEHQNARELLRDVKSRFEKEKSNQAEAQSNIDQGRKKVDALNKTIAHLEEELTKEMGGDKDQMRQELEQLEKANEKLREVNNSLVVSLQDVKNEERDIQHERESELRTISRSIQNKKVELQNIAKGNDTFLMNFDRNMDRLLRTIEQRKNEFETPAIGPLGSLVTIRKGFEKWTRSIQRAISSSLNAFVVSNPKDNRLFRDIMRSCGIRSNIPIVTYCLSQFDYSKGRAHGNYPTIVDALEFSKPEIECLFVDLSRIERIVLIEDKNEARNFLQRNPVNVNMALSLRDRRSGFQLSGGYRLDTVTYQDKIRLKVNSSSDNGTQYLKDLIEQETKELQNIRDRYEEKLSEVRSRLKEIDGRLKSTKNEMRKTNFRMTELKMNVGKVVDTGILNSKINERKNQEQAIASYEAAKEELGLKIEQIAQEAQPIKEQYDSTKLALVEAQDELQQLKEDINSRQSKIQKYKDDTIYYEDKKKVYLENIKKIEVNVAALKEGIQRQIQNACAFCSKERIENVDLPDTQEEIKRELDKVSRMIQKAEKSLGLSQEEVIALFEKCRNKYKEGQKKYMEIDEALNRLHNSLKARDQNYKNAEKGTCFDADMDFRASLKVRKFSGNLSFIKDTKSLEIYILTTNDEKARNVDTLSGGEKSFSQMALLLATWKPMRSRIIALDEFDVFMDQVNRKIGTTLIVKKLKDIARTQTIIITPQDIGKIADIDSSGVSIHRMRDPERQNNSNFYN
The experiment in a line: cross-linking.

In assay [4] the target is T2, Smc5 (S. cerevisiae). The experiment in a line: cross-linking. This is another data set of the same source.
Assay [5] concerns the target T3, Smc6 (Twin-Strep tag removed, as in the octamer for XL-MS) (S. cerevisiae). The assay is described as follows: cross-linking. The source holds these as a separate data set.

From article doi:10.1101/2021.02.09.430422 come the findings set out here.

Where two headings read alike, the source gives them in different places. These are yes or no findings as the source states them, for the method shown. Some binding calls cover weakened binding; strength is not graded here. For some assays here: Tags and fused reporters may be left off the sequences shown.

B1: Nse4 (protein, UniProt P43124 1-402)
chain: MSSTVISRKRRNSTVTEPDSSGETRKQKKSRSDEKSSSSKDGDPQLEFKVLQGYRDLESEMHKGRAQVTRTGDIGVAMDNLNAVDSLFNKVIGIKNNGLFAHDARAMVSISELAQISVRNLKFDDSRSMVNLENIVNSLKRYMLKEHFKLNNIAENRNDLTLAADEQSAADQQEESDGDIDRTPDDNHTDKATSSFKATSMRHSYLQQFSHYNEFSQFNWFRIGALYNTISKNAPITDHLMGPLSIEKKPRVLTQRRRNNDQVGEKITAEKITQHSLNSTQQETTPEQVKKCFKKLSKKLGPEGSINLFKFIIDPNSFSRSIENLFYTSFLIKEGKLLMEHDEEGLPTIKIKQSISHTDSRSKEIERQRRRAAHQNHIIFQMDMPTWRKLIKKYNITSPFLD
For B1, the binding entry (in assay [1]; in the assay with Smc5 (S. cerevisiae) [2]; in assay [3]) was “binds” in each case.

B2: Nse5-AviTag (Twin-Strep removed, as in the octamer for XL-MS) (protein, UniProt Q03718 1-556)
chain: MDGALINSVLYVSPRNGAHYFVELTEKHLLAFEMLNSMCLLENYDHVLLFLECQFGKSHNLAVIPFDIILVLFTLSTLSEYYKEPILRANDPYNTSRETLSRRALKLLQKYLAILKEFDSEQYNLYDLELLRCQFFLAIDTLTPKKQKWGFDRFRRTKSESGVTYRQNASVDPELDQAKTFKNPYRSYISCLEQRNTILGNRLLNLKLNEPGEFINMILWTLSNSLQESTPLFLSSHEIWMPLLEILIDLFSCRQDYFIQHEVAQNVSKSLFVQRLSESPLAVFFESLNTRNFANRFSEYVFLNCDYKLPSDNYATPVHPVYNGENTIVDTYIPTIKCSPLYKSQKSLALRRKLIGSCFKLLLRVPDGHRLITPRIVADDVIQGISRTLASFNDILQFKKFFMTENLSQESYFIPLLAEGTLSEILKDTQECVVILTLVENLSDGVSFCNEVIGLVKSKCFAFTEQCSQASYEEAVLNIEKCDVCLLVLLRYLLHLIGTEAILDAKEQLEMLHAIEKNDSGRRQWAKALNLGNDPPLLYPIVSQMFGVHDKSVIIE
As for B2, the binding result (with Smc5 (S. cerevisiae) [4]; in assay [5]; with Smc5 (S. cerevisiae) [2]; in assay [3]) was “binds” in each case.

B3: Nse1 (protein, UniProt Q07913 1-336)
chain: MEVHEEQVSAPVTGDATAKYLLQYILSARGICHENALILALMRLETDASTLNTEWSIQQWVDKLNDYINAINVKLNLLGYKIIRINHGIGRNAVTLKAKQNFESFEDNTAIRAHNNDYAVLQSIVLPESNRFFVYVNLASTEETKLATRFNQNEIEFMKWAIEQFMISGETIVEGPALETSIIVKEVNRILVAATGDSNLAKWRKFSTFTVGSTNLFQFQELTATDIEDLLLRLCELKWFYRTQEGKFGIDLRCIAELEEYLTSMYNLNTCQNCHKLAIQGVRCGNESCREENEETGENSLSQIWHVDCFKHYITHVSKNCDRCGSSLITEGVYVI
For B3, the binding entry in assay [1] is on record as “binds”.

B4: Nse2 (protein, UniProt P38632 1-267)
chain: MALNDNPIPKSVPLHPKSGKYFHNLHARDLSNIYQQCYKQIDETINQLVDSTSPSTIGIEEQVADITSTYKLLSTYESESNSFDEHIKDLKKNFKQSSDACPQIDLSTWDKYRTGELTAPKLSELYLNMPTPEPATMVNNTDTLKILKVLPYIWNDPTCVIPDLQNPADEDDLQIEGGKIELTCPITCKPYEAPLISRKCNHVFDRDGIQNYLQGYTTRDCPQAACSQVVSMRDFVRDPIMELRCKIAKMKESQEQDKRSSQAIDVL
Consider B4, for which the binding entry (in assay [1]; with Smc5 (S. cerevisiae) [2]; in assay [3]) was “binds” each time.

B5: Smc5 (protein, UniProt Q08204 1-1093)
chain: MTSLIDLGRYVERTHHGEDTEPRSKRVKIAKPDLSSFQPGSIIKIRLQDFVTYTLTEFNLSPSLNMIIGPNGSGKSTFVCAVCLGLAGKPEYIGRSKKVEDFIKNGQDVSKIEITLKNSPNVTDIEYIDARDETIKITRIITRSKRRSDYLINDYQVSESVVKTLVAQLNIQLDNLCQFLSQERVEEFARLKSVKLLVETIRSIDASLLDVLDELRELQGNEQSLQKDLDFKKAKIVHLRQESDKLRKSVESLRDFQNKKGEIELHSQLLPYVKVKDHKEKLNIYKEEYERAKANLRAILKDKKPFANTKKTLENQVEELTEKCSLKTDEFLKAKEKINEIFEKLNTIRDEVIKKKNQNEYYRGRTKKLQATIISTKEDFLRSQEILAQTHLPEKSVFEDIDIKRKEIINKEGEIRDLISEIDAKANAINHEMRSIQRQAESKTKSLTTTDKIGILNQDQDLKEVRDAVLMVREHPEMKDKILEPPIMTVSAINAQFAAYLAQCVDYNTSKALTVVDSDSYKLFANPILDKFKVNLRELSSADTTPPVPAETVRDLGFEGYLSDFITGDKRVMKMLCQTSKIHTIPVSRRELTPAQIKKLITPRPNGKILFKRIIHGNRLVDIKQSAYGSKQVFPTDVSIKQTNFYQGSIMSNEQKIRIENEIINLKNEYNDRKSTLDALSNQKSGYRHELSELASKNDDINREAHQLNEIRKKYTMRKSTIETLREKLDQLKREARKDVSQKIKDIDDQIQQLLLKQRHLLSKMASSMKSLKNCQKELISTQILQFEAQNMDVSMNDVIGFFNEREADLKSQYEDKKKFVKEMRDTPEFQSWMREIRSYDQDTKEKLNKVAEKYEEEGNFNLSFVQDVLDKLESEIAMVNHDESAVTILDQVTAELRELEHTVPQQSKDLETIKAKLKEDHAVLEPKLDDIVSKISARFARLFNNVGSAGAVRLEKPKDYAEWKIEIMVKFRDNAPLKKLDSHTQSGGERAVSTVLYMIALQEFTSAPFRVVDEINQGMDSRNERIVHKAMVENACAENTSQYFLITPKLLTGLHYHEKMRIHCVMAGSWIPNPSEDPKMIHFGETSNYSFD
For the molecule B5, the binding result in assay [5], in assay [1] and in assay [3] was “binds” throughout.
